From article PMC6461669
Results are given in words; binding and its absence hold for the method and conditions named. In cells and extracts the contact can be indirect. Some results given as binding are weak or reduced against the parent protein; the word gives no strength. For part of these data: Tags and fused reporters may be left off the sequences shown. One block for each substance: values may come before it.

Protein sequences, listed by entry. Tags and fused reporters are not part of them. Lines headed by an entry give the natural chain unless they say otherwise; changes in a name come on top.
UniProt P42227: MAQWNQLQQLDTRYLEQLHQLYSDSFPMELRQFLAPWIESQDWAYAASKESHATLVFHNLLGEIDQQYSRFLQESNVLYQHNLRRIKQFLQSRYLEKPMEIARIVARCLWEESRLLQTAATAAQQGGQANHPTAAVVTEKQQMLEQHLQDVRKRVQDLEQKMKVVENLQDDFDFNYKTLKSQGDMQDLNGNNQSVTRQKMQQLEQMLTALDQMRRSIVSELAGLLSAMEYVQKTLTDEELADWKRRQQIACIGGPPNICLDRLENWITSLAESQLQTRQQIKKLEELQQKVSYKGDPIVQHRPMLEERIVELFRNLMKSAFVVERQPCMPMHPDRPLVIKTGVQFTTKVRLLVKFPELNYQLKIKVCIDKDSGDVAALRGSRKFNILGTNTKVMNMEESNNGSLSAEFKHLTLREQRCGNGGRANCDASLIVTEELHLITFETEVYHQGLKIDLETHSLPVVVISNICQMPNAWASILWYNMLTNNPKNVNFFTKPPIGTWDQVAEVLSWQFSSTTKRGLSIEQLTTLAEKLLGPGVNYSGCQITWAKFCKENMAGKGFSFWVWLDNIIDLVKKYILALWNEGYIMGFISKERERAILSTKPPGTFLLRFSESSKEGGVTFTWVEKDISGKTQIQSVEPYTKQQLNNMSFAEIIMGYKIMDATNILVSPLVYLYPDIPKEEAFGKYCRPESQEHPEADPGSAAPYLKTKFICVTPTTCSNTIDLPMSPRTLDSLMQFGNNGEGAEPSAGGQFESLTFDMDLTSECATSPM
UniProt P40763: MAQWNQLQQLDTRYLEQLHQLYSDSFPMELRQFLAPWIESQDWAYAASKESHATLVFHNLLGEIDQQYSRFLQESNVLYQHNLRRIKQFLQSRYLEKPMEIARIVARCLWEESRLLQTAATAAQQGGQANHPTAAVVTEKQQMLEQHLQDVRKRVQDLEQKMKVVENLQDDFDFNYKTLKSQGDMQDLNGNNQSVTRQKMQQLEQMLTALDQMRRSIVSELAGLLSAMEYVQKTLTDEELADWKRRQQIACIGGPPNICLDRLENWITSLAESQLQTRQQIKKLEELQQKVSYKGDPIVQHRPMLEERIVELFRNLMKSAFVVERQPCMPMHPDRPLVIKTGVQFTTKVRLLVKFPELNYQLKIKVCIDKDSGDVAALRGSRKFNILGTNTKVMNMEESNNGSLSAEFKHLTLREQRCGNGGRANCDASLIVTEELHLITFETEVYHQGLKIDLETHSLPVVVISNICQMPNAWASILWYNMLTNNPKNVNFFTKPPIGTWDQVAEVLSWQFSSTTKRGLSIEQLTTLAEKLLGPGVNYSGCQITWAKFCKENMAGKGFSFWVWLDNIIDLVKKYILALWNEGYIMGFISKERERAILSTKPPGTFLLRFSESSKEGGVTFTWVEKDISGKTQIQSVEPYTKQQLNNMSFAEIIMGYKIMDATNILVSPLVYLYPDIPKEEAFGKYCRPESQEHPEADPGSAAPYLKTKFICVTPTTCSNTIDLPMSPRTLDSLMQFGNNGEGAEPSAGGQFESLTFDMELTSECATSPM
UniProt P70365: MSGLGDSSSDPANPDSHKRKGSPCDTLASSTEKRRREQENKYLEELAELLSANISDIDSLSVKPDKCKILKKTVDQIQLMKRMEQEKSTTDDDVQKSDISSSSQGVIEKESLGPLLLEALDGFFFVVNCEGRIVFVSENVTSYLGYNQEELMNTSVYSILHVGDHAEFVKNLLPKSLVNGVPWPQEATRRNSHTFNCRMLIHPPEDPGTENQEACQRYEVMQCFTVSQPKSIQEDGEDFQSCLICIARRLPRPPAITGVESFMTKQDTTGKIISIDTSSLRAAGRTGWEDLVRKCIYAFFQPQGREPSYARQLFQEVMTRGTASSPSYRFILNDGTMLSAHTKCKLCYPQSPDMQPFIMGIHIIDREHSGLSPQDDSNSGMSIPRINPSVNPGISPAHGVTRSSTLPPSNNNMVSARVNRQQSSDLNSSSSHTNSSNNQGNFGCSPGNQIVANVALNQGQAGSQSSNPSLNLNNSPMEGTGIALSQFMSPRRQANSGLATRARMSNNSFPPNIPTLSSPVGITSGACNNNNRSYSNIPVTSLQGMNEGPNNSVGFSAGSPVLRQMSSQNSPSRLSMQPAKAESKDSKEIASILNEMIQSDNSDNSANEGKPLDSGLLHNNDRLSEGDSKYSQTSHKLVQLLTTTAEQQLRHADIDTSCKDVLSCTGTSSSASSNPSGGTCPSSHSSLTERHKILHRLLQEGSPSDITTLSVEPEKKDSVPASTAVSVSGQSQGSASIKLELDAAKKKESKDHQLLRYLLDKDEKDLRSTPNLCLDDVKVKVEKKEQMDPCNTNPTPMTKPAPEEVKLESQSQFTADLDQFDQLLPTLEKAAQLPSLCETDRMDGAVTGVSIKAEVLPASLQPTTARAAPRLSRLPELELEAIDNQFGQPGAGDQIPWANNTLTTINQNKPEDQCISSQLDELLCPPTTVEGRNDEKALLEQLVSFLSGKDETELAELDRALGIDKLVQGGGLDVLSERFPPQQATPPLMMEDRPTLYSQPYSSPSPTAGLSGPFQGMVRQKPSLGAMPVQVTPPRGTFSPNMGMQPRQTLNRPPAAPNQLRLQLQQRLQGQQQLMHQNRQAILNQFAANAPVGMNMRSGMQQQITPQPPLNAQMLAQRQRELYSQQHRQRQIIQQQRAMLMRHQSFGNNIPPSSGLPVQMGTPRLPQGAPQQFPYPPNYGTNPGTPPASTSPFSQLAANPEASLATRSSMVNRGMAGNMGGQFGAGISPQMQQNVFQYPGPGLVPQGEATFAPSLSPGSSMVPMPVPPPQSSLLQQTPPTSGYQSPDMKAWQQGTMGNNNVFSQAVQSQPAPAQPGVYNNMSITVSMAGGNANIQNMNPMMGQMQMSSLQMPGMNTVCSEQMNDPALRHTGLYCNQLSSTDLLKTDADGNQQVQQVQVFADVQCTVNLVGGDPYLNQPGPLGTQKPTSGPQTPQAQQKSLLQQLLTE
UniProt Q15788: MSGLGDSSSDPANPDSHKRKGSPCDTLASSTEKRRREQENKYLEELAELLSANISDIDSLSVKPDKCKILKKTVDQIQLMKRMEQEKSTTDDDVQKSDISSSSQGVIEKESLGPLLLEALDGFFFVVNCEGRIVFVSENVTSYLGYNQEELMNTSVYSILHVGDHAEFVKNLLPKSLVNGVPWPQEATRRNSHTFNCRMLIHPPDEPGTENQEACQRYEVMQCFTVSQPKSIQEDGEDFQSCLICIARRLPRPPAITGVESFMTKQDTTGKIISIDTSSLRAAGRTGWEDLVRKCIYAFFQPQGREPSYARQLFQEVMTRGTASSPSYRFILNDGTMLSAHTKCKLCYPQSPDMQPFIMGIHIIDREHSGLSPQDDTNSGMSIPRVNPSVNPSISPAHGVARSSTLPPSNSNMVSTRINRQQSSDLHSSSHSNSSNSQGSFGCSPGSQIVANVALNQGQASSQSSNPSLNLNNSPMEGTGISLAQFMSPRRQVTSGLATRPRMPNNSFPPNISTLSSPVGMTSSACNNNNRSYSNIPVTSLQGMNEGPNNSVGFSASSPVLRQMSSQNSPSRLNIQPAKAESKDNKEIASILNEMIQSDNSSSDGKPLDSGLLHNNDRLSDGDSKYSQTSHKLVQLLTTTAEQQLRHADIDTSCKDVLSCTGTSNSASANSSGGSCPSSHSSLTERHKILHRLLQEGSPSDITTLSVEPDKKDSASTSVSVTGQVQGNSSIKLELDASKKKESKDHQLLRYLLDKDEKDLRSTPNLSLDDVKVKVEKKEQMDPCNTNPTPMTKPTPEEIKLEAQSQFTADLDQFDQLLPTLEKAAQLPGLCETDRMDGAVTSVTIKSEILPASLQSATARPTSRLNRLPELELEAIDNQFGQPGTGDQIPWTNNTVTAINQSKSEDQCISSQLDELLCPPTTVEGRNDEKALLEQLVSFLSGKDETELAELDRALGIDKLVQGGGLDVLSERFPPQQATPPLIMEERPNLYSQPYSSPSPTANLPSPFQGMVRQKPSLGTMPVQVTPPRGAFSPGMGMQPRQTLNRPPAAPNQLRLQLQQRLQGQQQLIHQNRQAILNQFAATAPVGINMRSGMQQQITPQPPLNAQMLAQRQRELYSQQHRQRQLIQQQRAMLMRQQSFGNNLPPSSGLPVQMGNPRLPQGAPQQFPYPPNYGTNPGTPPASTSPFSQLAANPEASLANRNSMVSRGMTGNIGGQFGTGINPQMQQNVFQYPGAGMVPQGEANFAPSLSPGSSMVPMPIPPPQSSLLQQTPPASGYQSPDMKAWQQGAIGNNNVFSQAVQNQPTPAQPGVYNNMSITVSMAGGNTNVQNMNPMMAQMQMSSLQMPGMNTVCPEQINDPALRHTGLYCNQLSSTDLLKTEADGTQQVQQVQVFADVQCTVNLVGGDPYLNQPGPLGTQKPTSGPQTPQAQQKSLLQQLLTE

Key:
[1] = biological target: phosphorylated STAT3 (pSTAT3), endogenous in mouse hypothalamus (mouse (endogenous in hypothalamus)) (UniProt P42227); assay: co-IP; hypothalamus lysates of C57Bl6 wild type mice, time course after i.p. leptin (5 mg/kg); anti-Phospho-STAT3 (Tyr705) sepharose beads or anti-SRC-1 (128E7) with Protein A/G agarose; immunoblot; lysis buffer 50 mM Tris-HCl pH 8.0, 50 mM KCl, 5 mM EDTA, 0.5% Nonidet P-40
[2] = biological target: phosphorylated human STAT3 (pSTAT3), Flag-tagged (human) (UniProt P40763); assay: co-IP; HEK293 cells co-transfected with leptin receptor, STAT3 and mutant SRC-1 vector (or empty vector), leptin 200 ng/ml 15 min; anti-pSTAT3 pull-down from lysate, blot with anti-SRC-1 (total SRC-1)
[3] = biological target: T1, Flag-tagged human thyroid hormone receptor-β (human) (UniProt P10828); assay: co-IP; equal amounts of total protein of SRC-1 WT or mutant lysates incubated with equal volumes of Flag-THRβ lysate overnight at 4 °C with 1 μM T3; anti-Flag beads 1 h, 6 washes; Western blot
T1 sequence: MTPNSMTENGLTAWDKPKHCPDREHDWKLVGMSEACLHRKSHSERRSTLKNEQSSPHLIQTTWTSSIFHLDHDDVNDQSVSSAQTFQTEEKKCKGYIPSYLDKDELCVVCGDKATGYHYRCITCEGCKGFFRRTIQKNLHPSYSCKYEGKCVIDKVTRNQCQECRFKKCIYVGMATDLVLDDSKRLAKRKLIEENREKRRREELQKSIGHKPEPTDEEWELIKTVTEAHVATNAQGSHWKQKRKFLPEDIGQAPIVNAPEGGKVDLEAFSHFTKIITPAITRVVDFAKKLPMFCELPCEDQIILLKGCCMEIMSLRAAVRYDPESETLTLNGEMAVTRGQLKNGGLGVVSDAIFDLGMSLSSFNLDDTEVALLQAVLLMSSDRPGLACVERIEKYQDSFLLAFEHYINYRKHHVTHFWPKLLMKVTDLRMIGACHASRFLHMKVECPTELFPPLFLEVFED

[4] = biological target: phosphorylated human STAT3 (pSTAT3), Flag-tagged (human) (UniProt P40763); assay: co-IP; pSTAT3 from leptin-treated HEK293 lysate held on anti-phospho-STAT3 sepharose beads (4 h, 4 °C), washed, aliquoted equally and incubated overnight with comparable amounts of SRC-1-HA (WT or mutant) in HEK293 lysate; blot with anti-HA; only the target purified
[5] = biological target: T2, Flag-tagged human vitamin D receptor (human) (UniProt P11473); assay: co-IP; Flag-tagged receptor from ligand-treated HEK293 lysate (17β-estradiol, calcitriol, dexamethasone or rosiglitazone, 30 min) held on anti-Flag beads (4 h, 4 °C), washed, aliquoted equally and incubated overnight with comparable amounts of SRC-1 (WT or mutant) in HEK293 lysate; Western blot; only the target purified
T2 sequence: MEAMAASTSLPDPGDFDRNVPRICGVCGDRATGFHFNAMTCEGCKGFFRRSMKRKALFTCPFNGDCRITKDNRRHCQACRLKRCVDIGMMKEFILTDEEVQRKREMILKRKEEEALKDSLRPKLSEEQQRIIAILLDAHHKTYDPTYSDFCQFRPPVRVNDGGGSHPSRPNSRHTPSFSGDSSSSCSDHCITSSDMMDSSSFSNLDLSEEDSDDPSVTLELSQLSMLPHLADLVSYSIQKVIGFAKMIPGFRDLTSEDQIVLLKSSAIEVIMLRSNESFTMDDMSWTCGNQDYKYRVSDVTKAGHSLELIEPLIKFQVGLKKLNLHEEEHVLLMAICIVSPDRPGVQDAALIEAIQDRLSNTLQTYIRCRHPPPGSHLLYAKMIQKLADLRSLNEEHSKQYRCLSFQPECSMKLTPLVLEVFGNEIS

binding [1]: binds
Substance: SRC-1, endogenous in mouse hypothalamus (from UniProt P70365 1-1447)

binding [2]: binds
Substance: endogenous SRC-1 of HEK293 cells (WT SRC-1; detected as total SRC-1) (from UniProt Q15788 1-1441)

binding [3]: binds
binding [4]: binds
binding [5]: binds
Substance: long isoform of human SRC-1-HA (WT) (from UniProt Q15788 1-1441)

binding [4]: binds
Substance: long isoform of human SRC-1-HA, S738L (from UniProt Q15788 1-1441)
